These are yes or no findings as the source states them, for the method shown. Binding seen in cells or lysates may run through a third protein. Some binding calls cover weakened binding; strength is not graded here.
Biological target: HA-HMGA1 (pcDNA3/HA-HMGA1), overexpressed in HEK-293 cells (human) (UniProt P17096)
Assay: co-IP; 200 μg nuclear extract of HEK-293 cells overexpressing HMGA1 (normoxia or hypoxia) mixed overnight with 5 μg anti-HMGA1 antibody, protein A Sepharose 90 min at 4°C, washed twice with PBS, immunoblot with anti-HIF-1α

Amino acid sequences for entries named in this document (tags omitted).
UniProt P17096: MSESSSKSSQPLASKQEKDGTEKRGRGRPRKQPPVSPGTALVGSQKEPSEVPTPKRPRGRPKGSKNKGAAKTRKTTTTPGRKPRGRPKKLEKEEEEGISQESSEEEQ
UniProt Q16665: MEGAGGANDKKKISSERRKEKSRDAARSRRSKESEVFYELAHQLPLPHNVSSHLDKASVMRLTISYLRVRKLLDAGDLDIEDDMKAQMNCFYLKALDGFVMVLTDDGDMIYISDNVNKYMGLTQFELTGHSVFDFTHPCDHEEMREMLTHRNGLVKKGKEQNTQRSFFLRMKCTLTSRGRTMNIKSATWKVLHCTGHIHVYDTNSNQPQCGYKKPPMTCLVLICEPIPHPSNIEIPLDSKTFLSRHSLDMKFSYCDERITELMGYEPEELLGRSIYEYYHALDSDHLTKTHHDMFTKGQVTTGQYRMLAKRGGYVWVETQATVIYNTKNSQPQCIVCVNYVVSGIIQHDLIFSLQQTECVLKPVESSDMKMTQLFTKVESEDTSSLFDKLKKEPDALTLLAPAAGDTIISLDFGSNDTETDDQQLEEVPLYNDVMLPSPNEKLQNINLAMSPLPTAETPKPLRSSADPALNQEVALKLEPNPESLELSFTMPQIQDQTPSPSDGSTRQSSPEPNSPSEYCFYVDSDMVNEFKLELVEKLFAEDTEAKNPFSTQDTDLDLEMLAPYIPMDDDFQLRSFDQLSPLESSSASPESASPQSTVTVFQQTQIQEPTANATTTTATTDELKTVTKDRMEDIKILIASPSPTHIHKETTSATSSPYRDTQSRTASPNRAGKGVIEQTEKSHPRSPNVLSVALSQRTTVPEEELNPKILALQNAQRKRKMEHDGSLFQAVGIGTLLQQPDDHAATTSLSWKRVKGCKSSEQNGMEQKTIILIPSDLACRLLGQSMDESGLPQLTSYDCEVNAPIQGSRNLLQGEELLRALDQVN

binding: binds
Substance: hypoxia-inducible factor 1 alpha (HIF-1α), in HEK-293 cells (from UniProt Q16665 1-826)
